These results are taken from article PMC6322271.

Common to all, as to assay: EMSA
Holding throughout (details): not given; protein translated in vitro; residues 1-268; label: 32P (T4 PNK)

Series [1] deals with T1, Slug wild-type (human) (UniProt O43623).
T1 sequence (looked up): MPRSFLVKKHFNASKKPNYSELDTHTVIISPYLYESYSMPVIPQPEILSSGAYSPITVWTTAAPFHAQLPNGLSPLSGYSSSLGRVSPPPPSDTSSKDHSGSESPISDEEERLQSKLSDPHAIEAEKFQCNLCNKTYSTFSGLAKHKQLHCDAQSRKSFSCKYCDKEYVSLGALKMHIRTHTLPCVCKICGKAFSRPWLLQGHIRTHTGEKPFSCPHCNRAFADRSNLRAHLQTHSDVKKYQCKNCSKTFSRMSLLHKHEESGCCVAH

The target of series [2] is T2, Slug6M K188R,K239R,K240R,K244R,K248R,K258R (human) (UniProt O43623).
T2 sequence (looked up): T1 sequence (looked up) with K188R, K239R, K240R, K244R, K248R, K258R

Series [3] has as its target T3, Slug8M K188R,K192R,K211R,K239R,K240R,K244R,K248R,K258R (human) (UniProt O43623).
T3 sequence (looked up): T1 sequence (looked up) with K188R, K192R, K211R, K239R, K240R, K244R, K248R, K258R

Residue numbers refer to the chain shown, from its start. The exact form of at least one protein or probe is not confirmed. For part of these data: Weaker means in comparison with the reference protein, sequence or condition of that experiment. Where a protein sequence is shown, tags need not be part of it. For part of these data: At least one verdict was read from the data and is not stated in words by the source.

In the case of “CGTCGGAACTGCAAAGCACCTGTGAGCTTGCGGAAGTC (double strand) [E-box C probe]”, the values for the binding result in series [1], in series [2] and in series [3] were “binds”, “binds more weakly” and “binds more weakly”, respectively.
